Results are given in words; binding and its absence hold for the method and conditions named. Binding seen in cells or lysates may run through a third protein. Some binding calls cover weakened binding; strength is not graded here. For some assays here: Sequences can lack the tags named with a protein.
Columns and labels:
[1] = target: T1, Endogenous SIRT2 (human (endogenous in SH-SY5Y)) (UniProt Q8IXJ6); assay: co-IP; endogenous SIRT2 immunoprecipitated from SH-SY5Y cells treated with or without 100 μM 6-OHDA for 4 h; GSK3β detected by Western blot
T1 sequence: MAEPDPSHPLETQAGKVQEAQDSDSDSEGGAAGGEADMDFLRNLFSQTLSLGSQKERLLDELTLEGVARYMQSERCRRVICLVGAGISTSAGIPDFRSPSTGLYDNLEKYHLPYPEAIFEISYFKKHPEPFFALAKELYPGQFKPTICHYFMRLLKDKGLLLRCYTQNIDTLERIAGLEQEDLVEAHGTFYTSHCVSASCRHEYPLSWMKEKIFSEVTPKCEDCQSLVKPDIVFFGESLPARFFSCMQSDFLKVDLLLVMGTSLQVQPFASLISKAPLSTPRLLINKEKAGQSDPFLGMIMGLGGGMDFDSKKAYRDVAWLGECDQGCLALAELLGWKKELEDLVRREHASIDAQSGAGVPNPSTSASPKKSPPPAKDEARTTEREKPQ

The chains behind the UniProt entries cited, without tags or fusion partners.
UniProt P49841: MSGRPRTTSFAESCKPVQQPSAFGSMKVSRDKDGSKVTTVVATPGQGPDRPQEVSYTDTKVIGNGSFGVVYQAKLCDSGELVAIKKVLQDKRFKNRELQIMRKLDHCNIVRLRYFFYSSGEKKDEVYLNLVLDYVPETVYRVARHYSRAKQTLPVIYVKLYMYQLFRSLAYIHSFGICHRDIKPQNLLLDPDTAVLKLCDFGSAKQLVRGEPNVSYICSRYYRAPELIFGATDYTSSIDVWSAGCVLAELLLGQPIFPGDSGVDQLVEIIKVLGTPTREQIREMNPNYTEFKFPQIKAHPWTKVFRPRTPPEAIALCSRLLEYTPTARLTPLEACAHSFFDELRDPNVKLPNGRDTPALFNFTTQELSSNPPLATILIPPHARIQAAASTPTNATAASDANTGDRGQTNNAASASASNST

Flag-tagged SIRT2 = target: T2, Flag-tagged SIRT2 (UniProt Q8IXJ6); assay: co-IP; HEK293 cells expressing Flag-tagged SIRT2 or HA-tagged GSK3β; lysis in 50 mM Tris-HCl pH 7.4, 150 mM NaCl, 1% NP-40; HA or Flag antibody overnight at 4°C, Protein A/G Sepharose beads; anti-GST and anti-Myc antibodies as IgG controls
T2 sequence: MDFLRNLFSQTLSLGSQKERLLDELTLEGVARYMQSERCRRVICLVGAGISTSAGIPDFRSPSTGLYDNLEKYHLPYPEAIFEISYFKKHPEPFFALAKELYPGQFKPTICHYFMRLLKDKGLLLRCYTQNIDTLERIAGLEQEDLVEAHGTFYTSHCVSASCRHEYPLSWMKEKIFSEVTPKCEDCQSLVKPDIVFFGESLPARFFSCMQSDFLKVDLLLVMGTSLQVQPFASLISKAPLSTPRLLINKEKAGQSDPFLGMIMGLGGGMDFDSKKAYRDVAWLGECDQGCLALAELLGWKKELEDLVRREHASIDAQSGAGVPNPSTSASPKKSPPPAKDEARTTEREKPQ

binding [1] | binding (Flag-tagged SIRT2) | Substance
binds | – | Endogenous GSK3β (from UniProt P49841 1-420) (enzyme)
– | binds | HA-tagged GSK3β (from UniProt P49841 1-420) (enzyme)
